Measured values: PubChem BioAssay AID2596 (National Center for Advancing Translational Sciences (NCATS), 2010)
The inconclusive results got no clear call from the source; some entries with a clear call stand among them for comparison. Potencies of inconclusive entries are doubtful fits and often do not repeat. Calls of active or inactive are those of the source. Calls follow the shape of the dose curve; as a rule, active = well fitted inhibition curve with a large enough effect; inconclusive = small, poorly fitted or top-dose-only effect, or effect the other way; inactive = flat fitted curve, though single readings scatter.

Sequences of proteins named here, by UniProt entry; tags and fusion partners are left off.
UniProt P04062, whole entry N409S: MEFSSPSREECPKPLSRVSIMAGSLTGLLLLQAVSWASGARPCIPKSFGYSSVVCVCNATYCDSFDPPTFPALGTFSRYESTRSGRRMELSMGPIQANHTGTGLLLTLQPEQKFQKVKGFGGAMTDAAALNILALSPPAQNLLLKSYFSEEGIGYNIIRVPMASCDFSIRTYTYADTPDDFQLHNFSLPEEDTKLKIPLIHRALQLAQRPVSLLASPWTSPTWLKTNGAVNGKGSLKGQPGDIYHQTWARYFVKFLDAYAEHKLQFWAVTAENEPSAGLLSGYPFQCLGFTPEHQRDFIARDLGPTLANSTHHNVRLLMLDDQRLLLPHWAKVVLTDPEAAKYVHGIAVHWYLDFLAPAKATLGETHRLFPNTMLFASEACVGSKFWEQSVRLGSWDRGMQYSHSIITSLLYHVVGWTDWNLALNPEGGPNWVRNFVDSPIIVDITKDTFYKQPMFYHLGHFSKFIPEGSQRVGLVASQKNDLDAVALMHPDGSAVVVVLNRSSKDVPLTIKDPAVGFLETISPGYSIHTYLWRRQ

These molecules were tested against Lysosomal acid glucosylceramidase (Homo sapiens) (UniProt P04062) (assay: qHTS Assay for Inhibitors and Activators of N370S glucocerebrosidase as a Potential Chaperone Treatment of Gaucher Disease: Purified N370S Glucocerebrosidase Cleavage of Glucosylceramide). Conditions: purified N370S GCase; series mostly up to 77.6 µM.
Source text: NIH Chemical Genomics Center [NCGC]
NIH Molecular Libraries Probe Production Centers Network [MLPCN]
Assay Submitter (PI): Wei Zheng
Glucocerebrosidase (GC) catalyzes the hydrolysis of beta-glucocerebroside to glucose and ceramide in lysosomes. Mutations in the glucocerebrosidase gene result in Gaucher disease, an autosomal recessive lysosomal storage disorder. Many of the mutations encountered in patients with Gaucher disease are missense alterations that may cause misfolding, decreased stability and/or mistrafficking of this lysosomal protein. […] These inhibitors include iminosugar analogs and three non-iminosugar inhibitors identified from a previous HTS of 62,000 compounds with the wild type recombinant enzyme. However, the enhancement of enzyme activity by the chaperone action of an enzyme inhibitor must be balanced against the direct inhibition of the enzyme. An enzyme activator could also function as a chaperone by binding to the enzyme and helping to correct its misfolding and mistrafficking. While activators for GC have not yet been identified, they may have better therapeutic potential than inhibitors. Therefore the discovery and development of chemical activators may provide a new strategy for the chaperone therapy.
We have optimized a new assay using N370S mutant GC derived from the spleen of a Gaucher patient. […] In addition, the MLPCN compound library has expanded, which increases the chance of finding new and better probes.
This assay characterizes compound activity using purified, mutant enzyme cleavage of the native substrate for the enzyme instead of mutant enzyme from tissue homogenate. Compound activity differences may be due to the absence of endogenous cofactors found in tissue homogenate as well as inherent differences in enzyme stability and catalytic activity using the difference substrates.
NCGC Assay Protocol Summary:
This is an enzyme assay using glucosylceramide from soy (Avanti Polar Lipids Catalog #: 131304P) as the substrate and recombinant human glucocerebrosidase as the enzyme preparation. Upon hydrolysis of the substrate, the glucose product can be detected using the Amplex Red Glucose Oxidase Assay Kit (Invitrogen catalog #: A22189). The product of this reaction can be read with a fluorescence plate reader with an excitation at 573 nm and an emission at 610 nm. Data were normalized to the controls for basal activity (without enzyme) and 100% activity (with enzyme). The AC50 values were determined from concentration-response data modeled with the standard Hill equation.
Assay buffer for enzyme reaction: 50 mM citric acid (titrated with potassium phosphate to pH 5.9), 0.01% Tween-20 (pH 5.9 is an optimal condition for this enzyme assay)
Assay buffer for Amplex Red reaction: Tris-HCl, pH 7.5
1536-well assay protocol for the glucocerebrosidase assay:
(1) Add 2 ul/well glucocerebrosidase enzyme solution (5 nM final)
(2) Add 23 nL compounds in DMSO solution. The final titration was 0.7 nM to 77 uM.
(3) Add 1 ul of glucosylceramide solution (50 uM final)
(4) Incubate at 37C for 40 min
(5) Add 2 ul tris-HCl buffer with Amplex Red reagents
(6) Incubate 45 min at room temperature.
(7) Detect the assay plate in a ViewLux plate reader (PerkinElmer) with Ex=573 nm and Em=610nm.
Keywords: Glucocerebrosidase, beta-glucosidase, Gaucher Disease, pharmacological chaperone, chaperone therapy, high throughput screening, glucocerebrosidase inhibitor, MLSMR, MLSCN, NIH Roadmap, qHTS and NCGC

Q: With Cc1cccc(S(=O)(=O)N2CCN(c3nc(-c4cccs4)nc4ccccc34)CC2)c1 as the molecule, how does the Potency read?
A: inconclusive: 11.2 µM [activator, single point]

Q: For FC(F)(F)c1ccccc1-c1nccc(NCc2cccs2)n1, which Potency is on record?
A: inconclusive: 12.6 µM [activator, full curve, poor fit]

Q: Which Potency does the source give for O=C(c1ccc2c(c1)OCCO2)N1CCN(c2nc(-c3cccs3)nc3ccccc23)CC1 here?
A: inactive

Q: With COc1cc2c(cc1NC(=O)COC(=O)[C@@H](NC(=O)c1ccccc1)C(C)C)oc1ccccc12 as the molecule, how does the Potency read?
A: inconclusive: 12.6 µM [activator, full curve, poor fit]

Q: Which Potency does the source give for Cc1ccc(NC(=O)COc2ccccc2C(=O)Nc2ccccc2)cc1Cl here?
A: inactive

Q: Which Potency does the source give for S=C(NCCCc1cnc[nH]1)NCCCN(Cc1ccc(Cl)c(Cl)c1)c1ccc(Br)cn1 here?
A: active: 44.7 µM

Q: How did the Potency turn out when CN(C)c1ccc(C(=C2C=CC(=[N+](C)C)C=C2)c2ccc(N(C)C)cc2)cc1 was run?
A: inconclusive: 44.7 µM [inhibitor, partial curve, poor fit]

Q: Which Potency does the source give for O=C(COc1ccccc1[N+](=O)[O-])Nc1ccc(Br)cc1 here?
A: inconclusive: 12.6 µM [activator, full curve, poor fit]

Q: Cc1ccccc1S(=O)(=O)N1CCN(c2nc(-c3cccs3)nc3ccccc23)CC1 was tested. Which Potency did it give?
A: inactive

Q: For O=S(=O)(c1ccc(F)cc1)N1CCN(c2nc(-c3cccc(Br)c3)nc3ccccc23)CC1, which Potency is on record?
A: inconclusive: 50.1 µM [activator, single point]

Q: With CC(C)C(C)NC(=O)CSc1nc2scc(-c3ccco3)c2c(=O)n1-c1ccccc1 (stereo not given) as the molecule, how does the Potency read?
A: inconclusive: 7.94 µM [activator, partial curve, poor fit]

Q: How did the Potency turn out when O=S(=O)(c1ccc(F)cc1)N1CCN(c2nc(-c3cccs3)nc3cc(Cl)ccc23)CC1 was run?
A: inconclusive: 0.199 µM [activator, single point]

Q: For O=S(=O)(c1ccc(Cl)cc1)N1CCN(c2nc(-c3cccs3)nc3ccccc23)CC1, which Potency is on record?
A: inactive

Q: CCOc1ccc(N(CC(=O)NC2CCCCCC2)S(=O)(=O)c2c(C)[nH]c(=O)[nH]c2=O)cc1 was tested. Which Potency did it give?
A: inconclusive: 70.8 µM [inhibitor, single point]

Q: O=S(=O)(c1ccc(Cl)cc1)N1CCN(c2nc(Nc3cc(Cl)ccc3O)nc3ccccc23)CC1 was tested. Which Potency did it give?
A: active: 14.1 µM

Q: Which Potency does the source give for Cc1ccc(S(=O)(=O)N2CCN(c3nc(-c4ccc(F)cc4)nc4cc(Cl)ccc34)CC2)cc1 here?
A: inconclusive: 7.94 µM [activator, partial curve, poor fit]

Q: How did the Potency turn out when COc1cccc(NC(=O)CSc2nc3ccccc3c(=O)n2Cc2cccs2)c1 was run?
A: inconclusive: 10 µM [activator, full curve, poor fit]

Q: Which Potency does the source give for CSc1ccc(NC(=O)Nc2cc(C)ccn2)cc1 here?
A: inactive

Q: With O=S(=O)(c1cccc2ccccc12)N1CCN(c2nc(-c3cccs3)nc3ccccc23)CC1 as the molecule, how does the Potency read?
A: inactive

Q: c1ccc2c(NCC3CCCO3)nc(N3CCOCC3)nc2c1 (stereo not given) was tested. Which Potency did it give?
A: inactive

Q: COc1cccc(NC(=S)N(CCCN2CCOCC2)Cc2cn(C)c3ccccc23)c1 was tested. Which Potency did it give?
A: inconclusive: 1.58 µM [activator, single point]

Q: Which Potency does the source give for COc1cc(OC)cc(C(=O)N[C@H](C(=O)OCC(=O)Nc2cccc(F)c2)C(C)C)c1 here?
A: inconclusive: 7.08 µM [activator, single point]

Q: Which Potency does the source give for N=c1c2c(-c3ccccc3)c(-c3ccccc3)n(Cc3ccco3)c2ncn1CCCn1ccnc1 here?
A: inactive

Q: With CCC(C)NC(=O)COC(=O)c1ccccc1OCC(=O)Nc1ccc(Br)cc1 (stereo not given) as the molecule, how does the Potency read?
A: inconclusive: 35.5 µM [activator, partial curve, poor fit]

Q: With Cc1ccc2nc(-c3ccc(SCC(=O)N4CCc5ccccc54)nc3)[nH]c2c1 as the molecule, how does the Potency read?
A: inconclusive: 20 µM [inhibitor, single point]

Q: O=C(/C=C/c1ccc(O)cc1)c1ccc(O)cc1O was tested. Which Potency did it give?
A: inconclusive: 20 µM [inhibitor, partial curve, poor fit]

Q: With CCOc1ccccc1NC(=O)CN(c1ccc(C)cc1)S(=O)(=O)c1c(C)noc1C as the molecule, how does the Potency read?
A: inconclusive: 3.16e-05 µM [inhibitor, full curve, poor fit]

Q: How did the Potency turn out when Cc1ccc(Cl)cc1NC(=O)c1ccccc1OCC(=O)Nc1ccc(Cl)cc1 was run?
A: inconclusive: 15.8 µM [activator, partial curve, poor fit]

Q: With N#Cc1ccccc1Sc1ccccc1C(=O)OCC(=O)NC12CC3CC(CC(C3)C1)C2 as the molecule, how does the Potency read?
A: inconclusive: 11.2 µM [activator, full curve, poor fit]

Q: Cc1cc(C)cc(N(CC(=O)NC2CCCCCC2)S(=O)(=O)c2c(C)[nH]c(=O)[nH]c2=O)c1 was tested. Which Potency did it give?
A: active: 14.1 µM

Q: Which Potency does the source give for CC(C)(C)C(=O)OCCNc1nc(-c2ccccc2)nc2ccccc12 here?
A: active: 39.8 µM

Q: How did the Potency turn out when O=S(=O)(c1ccccc1)N1CCN(c2nc(-c3ccc(F)cc3)nc3cc(Cl)ccc23)CC1 was run?
A: inactive

Q: How did the Potency turn out when CCc1cc(C(=O)N/N=C/c2c(C)[nH]c3ccccc23)cs1 was run?
A: inconclusive: 10 µM [activator, full curve, poor fit]

Q: How did the Potency turn out when O=S(=O)(c1ccc(Cl)cc1)N1CCN(c2nc(-c3cccc(Br)c3)nc3ccccc23)CC1 was run?
A: inactive

Q: Which Potency does the source give for O=S(=O)(c1cccs1)N1CCN(c2nc(-c3cccs3)nc3ccccc23)CC1 here?
A: inconclusive: 56.2 µM [activator, partial curve, poor fit]

Q: CC1CC(C)CN(C(=O)CSc2nc(Cc3cccs3)nc3ccccc23)C1 (stereo not given) was tested. Which Potency did it give?
A: inconclusive: 39.8 µM [activator, partial curve, poor fit]

Q: With COc1ccc(Nc2nc(-c3cccs3)nc3ccccc23)cc1 as the molecule, how does the Potency read?
A: inconclusive: 44.7 µM [inhibitor, partial curve, poor fit]

Q: For Cc1cc(C)cc(N(CC(=O)NC2CCC(C)CC2)S(=O)(=O)c2c(C)[nH]c(=O)[nH]c2=O)c1 (stereo not given), which Potency is on record?
A: active: 35.5 µM

Q: With O=S(=O)(c1ccc(Cl)cc1)N1CCN(c2nc(-c3ccc(Cl)cc3)nc3ccccc23)CC1 as the molecule, how does the Potency read?
A: inactive

Q: For Oc1ccccc1Nc1nc(NCC2CCCO2)c2ccccc2n1 (stereo not given), which Potency is on record?
A: inconclusive: 31.6 µM [inhibitor, partial curve, poor fit]
